Laboratory results published in PMC6904361, “Vitamin D Receptor Inhibits NLRP3 Activation by Impeding Its BRCC3-Mediated Deubiquitination” (Frontiers in Immunology, 2019).
No constants are given. Whether binding was seen depends on the method and setting. Binding seen in cells or lysates may run through a third protein. A yes stands for co-enrichment or nearness to the bait. Other partners may have been found.

The chains behind the UniProt entries cited, without tags or fusion partners.
UniProt Q96P20: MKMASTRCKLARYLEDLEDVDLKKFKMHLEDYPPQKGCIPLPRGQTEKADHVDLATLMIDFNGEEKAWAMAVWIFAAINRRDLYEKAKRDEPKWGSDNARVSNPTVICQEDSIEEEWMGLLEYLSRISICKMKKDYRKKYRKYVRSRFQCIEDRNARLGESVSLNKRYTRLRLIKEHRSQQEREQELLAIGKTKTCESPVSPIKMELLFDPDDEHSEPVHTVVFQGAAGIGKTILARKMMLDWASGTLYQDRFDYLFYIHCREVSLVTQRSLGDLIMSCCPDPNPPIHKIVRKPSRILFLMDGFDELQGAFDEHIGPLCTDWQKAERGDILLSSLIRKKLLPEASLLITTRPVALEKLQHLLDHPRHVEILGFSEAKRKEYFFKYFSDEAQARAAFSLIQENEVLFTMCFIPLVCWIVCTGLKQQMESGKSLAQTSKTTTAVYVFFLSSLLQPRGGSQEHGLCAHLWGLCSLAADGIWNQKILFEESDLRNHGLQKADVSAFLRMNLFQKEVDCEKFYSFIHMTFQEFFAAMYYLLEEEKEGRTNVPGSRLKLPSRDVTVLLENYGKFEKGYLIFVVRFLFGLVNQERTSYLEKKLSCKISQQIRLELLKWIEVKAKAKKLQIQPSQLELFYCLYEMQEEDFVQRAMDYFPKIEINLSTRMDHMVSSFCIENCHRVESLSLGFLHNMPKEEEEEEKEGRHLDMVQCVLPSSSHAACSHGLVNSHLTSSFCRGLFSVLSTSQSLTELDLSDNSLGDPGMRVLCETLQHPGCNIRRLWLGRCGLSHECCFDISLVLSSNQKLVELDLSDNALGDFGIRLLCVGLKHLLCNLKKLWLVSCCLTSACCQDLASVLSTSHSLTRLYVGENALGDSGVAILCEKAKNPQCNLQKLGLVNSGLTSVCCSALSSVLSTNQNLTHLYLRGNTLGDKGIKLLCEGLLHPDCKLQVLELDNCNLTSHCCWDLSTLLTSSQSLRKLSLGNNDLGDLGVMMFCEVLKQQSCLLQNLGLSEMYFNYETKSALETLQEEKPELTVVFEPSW

Biological target: Flag-NLRP3 (UniProt Q96P20)
Assay: affinity purification with mass spectrometry; Flag-NLRP3 or empty Flag construct in HEK293T for 24 h; anti-Flag antibody and Protein A/G-Agarose; SDS-PAGE, in-gel trypsin digestion, LC-MS/MS (LTQ Orbitrap Velos)

binding: binds
B1: GST-human VDR (natural protein, UniProt P11473 1-427, looked up)
chain: MEAMAASTSLPDPGDFDRNVPRICGVCGDRATGFHFNAMTCEGCKGFFRRSMKRKALFTCPFNGDCRITKDNRRHCQACRLKRCVDIGMMKEFILTDEEVQRKREMILKRKEEEALKDSLRPKLSEEQQRIIAILLDAHHKTYDPTYSDFCQFRPPVRVNDGGGSHPSRPNSRHTPSFSGDSSSSCSDHCITSSDMMDSSSFSNLDLSEEDSDDPSVTLELSQLSMLPHLADLVSYSIQKVIGFAKMIPGFRDLTSEDQIVLLKSSAIEVIMLRSNESFTMDDMSWTCGNQDYKYRVSDVTKAGHSLELIEPLIKFQVGLKKLNLHEEEHVLLMAICIVSPDRPGVQDAALIEAIQDRLSNTLQTYIRCRHPPPGSHLLYAKMIQKLADLRSLNEEHSKQYRCLSFQPECSMKLTPLVLEVFGNEIS
notes: human vitamin D receptor in pGEX-6P1; also called GST-VDR; pGEX6p-1-GST-VDR; source: E. coli BL21(DE3), IPTG-induced; called purified in the legend
